Results taken from the supplement of paper PMC8728848.
This is one part of the list.

Key:
Experiment in all cases: glycan array binding signal (z-score within array); higher = stronger binding
Details in all cases: glycan notation: IUPAC condensed, linker removed; mutation: R276L
[1] = molecular target: Neu5Ac(a2-3)Gal(b1-3)GlcNAc(b1-6)GalNAc
Method in brief: (§1)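 Arrays were curated from the Consortium for Functional Glycomics database, 3228 in total, and kept only where the protein sequence was available. Binding is expressed as a within-array Z-score. This score was averaged across arrays of the same protein sequence at different concentrations or buffers and across linkers, and negative values can be read as non-binding.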

[2] = molecular target: Neu5Ac(a2-3)Gal(b1-3)GlcNAc6S
Method in brief: as §1

[3] = molecular target: Neu5Ac(a2-3)Gal(b1-3)[Fuc(a1-4)]GlcNAc
Method in brief: as §1

[4] = molecular target: Neu5Ac(a2-3)Gal(b1-3)[Fuc(a1-4)]GlcNAc(b1-3)Gal(b1-3)[Fuc(a1-4)]GlcNAc
Method in brief: as §1

[5] = molecular target: Neu5Ac(a2-3)Gal(b1-3)[Fuc(a1-4)]GlcNAc(b1-3)Gal(b1-4)[Fuc(a1-3)]GlcNAc
Method in brief: as §1

[6] = molecular target: Neu5Ac(a2-3)Gal(b1-3)[GlcNAc(b1-6)]GalNAc
Method in brief: as §1

[7] = molecular target: Neu5Ac(a2-3)Gal(b1-3)[Neu5Ac(a2-6)]GalNAc
Method in brief: as §1

[8] = molecular target: Neu5Ac(a2-3)Gal(b1-3)[Neu5Ac(a2-6)]GlcNAc(b1-3)[Fuc(a1-3)[Gal(b1-4)]GlcNAc(b1-6)]Gal(b1-4)Glc
Method in brief: as §1

[9] = molecular target: Neu5Ac(a2-3)Gal(b1-3)]Neu5Ac(a2-3)Gal(b1-4)]GlcNAc
Method in brief: as §1

[10] = molecular target: Neu5Ac(a2-3)Gal(b1-4)Glc
Method in brief: as §1

[11] = molecular target: Neu5Ac(a2-3)Gal(b1-4)GlcNAc
Method in brief: as §1

[12] = molecular target: Neu5Ac(a2-3)Gal(b1-4)GlcNAc(b1-2)Man
Method in brief: as §1

[13] = molecular target: Neu5Ac(a2-3)Gal(b1-4)GlcNAc(b1-2)Man(a1-3)[GlcNAc(b1-4)][Neu5Ac(a2-3)Gal(b1-4)GlcNAc(b1-2)Man(a1-6)]Man(b1-4)GlcNAc(b1-4)GlcNAc
Method in brief: as §1

[14] = molecular target: Neu5Ac(a2-3)Gal(b1-4)GlcNAc(b1-2)Man(a1-3)[Neu5Ac(a2-3)Gal(b1-4)GlcNAc(b1-2)Man(a1-6)]Man(b1-4)GlcNAc(b1-4)GlcNAc
Method in brief: as §1

[15] = molecular target: Neu5Ac(a2-3)Gal(b1-4)GlcNAc(b1-2)Man(a1-3)[Neu5Ac(a2-3)Gal(b1-4)GlcNAc(b1-2)Man(a1-6)]Man(b1-4)GlcNAc(b1-4)[Fuc(a1-6)]GlcNAc
Method in brief: as §1

[16] = molecular target: Neu5Ac(a2-3)Gal(b1-4)GlcNAc(b1-2)Man(a1-3)[Neu5Ac(a2-6)Gal(b1-4)GlcNAc(b1-2)Man(a1-6)]Man(b1-4)GlcNAc(b1-4)GlcNAc
Method in brief: as §1

[17] = molecular target: Neu5Ac(a2-3)Gal(b1-4)GlcNAc(b1-2)[Neu5Ac(a2-3)Gal(b1-4)GlcNAc(b1-4)]Man(a1-3)[GlcNAc(b1-4)][Neu5Ac(a2-3)Gal(b1-4)GlcNAc(b1-2)[Neu5Ac(a2-3)Gal(b1-4)GlcNAc(b1-6)]Man(a1-6)]Man(b1-4)GlcNAc(b1-4)GlcNAc
Method in brief: as §1

[18] = molecular target: Neu5Ac(a2-3)Gal(b1-4)GlcNAc(b1-2)[Neu5Ac(a2-3)Gal(b1-4)GlcNAc(b1-4)]Man(a1-3)[GlcNAc(b1-4)][Neu5Ac(a2-3)Gal(b1-4)GlcNAc(b1-4)Man(a1-6)]Man(b1-4)GlcNAc(b1-4)GlcNAc
Method in brief: as §1

[19] = molecular target: Neu5Ac(a2-3)Gal(b1-4)GlcNAc(b1-2)[Neu5Ac(a2-3)Gal(b1-4)GlcNAc(b1-6)]Man(a1-6)[Neu5Ac(a2-3)Gal(b1-4)GlcNAc(b1-2)Man(a1-3)][GlcNAc(b1-4)]Man(b1-4)GlcNAc(b1-4)GlcNAc
Method in brief: as §1

[20] = molecular target: Neu5Ac(a2-3)Gal(b1-4)GlcNAc(b1-3)Gal
Method in brief: as §1

[21] = molecular target: Neu5Ac(a2-3)Gal(b1-4)GlcNAc(b1-3)Gal(b1-3)GlcNAc
Method in brief: as §1

[22] = molecular target: Neu5Ac(a2-3)Gal(b1-4)GlcNAc(b1-3)Gal(b1-4)GlcNAc
Method in brief: as §1

[23] = molecular target: Neu5Ac(a2-3)Gal(b1-4)GlcNAc(b1-3)Gal(b1-4)GlcNAc(b1-2)Man(a1-3)[Neu5Ac(a2-3)Gal(b1-4)GlcNAc(b1-3)Gal(b1-4)GlcNAc(b1-2)Man(a1-6)]Man(b1-4)GlcNAc(b1-4)GlcNAc
Method in brief: as §1

[24] = molecular target: Neu5Ac(a2-3)Gal(b1-4)GlcNAc(b1-3)Gal(b1-4)GlcNAc(b1-3)Gal(b1-4)GlcNAc
Method in brief: as §1

[25] = molecular target: Neu5Ac(a2-3)Gal(b1-4)GlcNAc(b1-3)Gal(b1-4)GlcNAc(b1-3)Gal(b1-4)GlcNAc(b1-2)Man(a1-3)[Neu5Ac(a2-3)Gal(b1-4)GlcNAc(b1-3)Gal(b1-4)GlcNAc(b1-3)Gal(b1-4)GlcNAc(b1-2)Man(a1-6)]GalNAc
Method in brief: as §1

[26] = molecular target: Neu5Ac(a2-3)Gal(b1-4)GlcNAc(b1-3)Gal(b1-4)GlcNAc(b1-3)GalNAc
Method in brief: as §1

[27] = molecular target: Neu5Ac(a2-3)Gal(b1-4)GlcNAc(b1-3)Gal(b1-4)GlcNAc(b1-3)[Neu5Ac(a2-3)Gal(b1-4)GlcNAc(b1-3)Gal(b1-4)GlcNAc(b1-6)]GalNAc
Method in brief: as §1

[28] = molecular target: Neu5Ac(a2-3)Gal(b1-4)GlcNAc(b1-3)Gal(b1-4)GlcNAc(b1-6)[Gal(b1-3)]GalNAc
Method in brief: as §1

[29] = molecular target: Neu5Ac(a2-3)Gal(b1-4)GlcNAc(b1-3)Gal(b1-4)[Fuc(a1-3)]GlcNAc
Method in brief: as §1

[30] = molecular target: Neu5Ac(a2-3)Gal(b1-4)GlcNAc(b1-3)GalNAc
Method in brief: as §1

B1: SUN4P (Saccharomyces cerevisiae), P53616 (protein)
chain: MGSSHHHHHHSSGLVPRGSHNGSIYGDLADFSGPYEKFEDGTIPCGQFPSGQGVIPISWLDEGGWSGVENTDTSTGGSCKEGSYCSYACQPGMSKTQWPSDQPSDGRSIGGLLCKDGYLYRSNTDTDYLCEWGVDAAYVVSELSNDVAICLTDYPGTENMVIPTYVQAGDSLPLTVVDQDTYYTWQGLKTSAQYYVNNAGISVEDACVWGSSSSGVGNWAPLNFGAGSSDGVAYLSLIPNPNNGNALNFNVKIVAADDSSTVNGECIYENGSFSGGSDGCTVSVTAGKAKFVLYN
glycan array binding signal (z-score) [1]: -0.635
glycan array binding signal (z-score) [2]: -0.317
glycan array binding signal (z-score) [3]: -1.08
glycan array binding signal (z-score) [4]: -0.862
glycan array binding signal (z-score) [5]: -0.964
glycan array binding signal (z-score) [6]: -0.212
glycan array binding signal (z-score) [7]: -0.468
glycan array binding signal (z-score) [8]: -0.341
glycan array binding signal (z-score) [9]: 0.213
glycan array binding signal (z-score) [10]: -1.01
glycan array binding signal (z-score) [11]: -0.796
glycan array binding signal (z-score) [12]: 1.38
glycan array binding signal (z-score) [13]: -0.446
glycan array binding signal (z-score) [14]: -0.607
glycan array binding signal (z-score) [15]: -0.195
glycan array binding signal (z-score) [16]: 0.739
glycan array binding signal (z-score) [17]: 0.28
glycan array binding signal (z-score) [18]: -0.853
glycan array binding signal (z-score) [19]: -0.504
glycan array binding signal (z-score) [20]: -0.543
glycan array binding signal (z-score) [21]: 1.27
glycan array binding signal (z-score) [22]: 0.029
glycan array binding signal (z-score) [23]: 0.703
glycan array binding signal (z-score) [24]: 0.807
glycan array binding signal (z-score) [25]: 1.11
glycan array binding signal (z-score) [26]: -0.113
glycan array binding signal (z-score) [27]: 0.624
glycan array binding signal (z-score) [28]: -0.567
glycan array binding signal (z-score) [29]: -0.687
glycan array binding signal (z-score) [30]: -0.973
